Test results reported in paper PMC8206348.
These are yes or no findings as the source states them, for the method shown. Binding seen in cells or lysates may run through a third protein. Each block holds one binder with its values, some of them ahead of it.

The chains behind the UniProt entries cited, without tags or fusion partners.
UniProt Q9Y5U2: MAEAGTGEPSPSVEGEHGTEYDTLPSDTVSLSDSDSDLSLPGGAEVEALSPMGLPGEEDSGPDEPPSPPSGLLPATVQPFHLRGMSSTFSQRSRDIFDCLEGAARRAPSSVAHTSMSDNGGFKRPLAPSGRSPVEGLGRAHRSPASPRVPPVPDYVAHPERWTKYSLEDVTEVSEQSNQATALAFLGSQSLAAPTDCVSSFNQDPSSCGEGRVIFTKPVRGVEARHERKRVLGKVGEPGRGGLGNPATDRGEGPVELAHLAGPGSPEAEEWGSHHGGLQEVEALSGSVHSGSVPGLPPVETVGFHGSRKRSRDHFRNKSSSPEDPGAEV

Legend:
[1] = target: TSSC4-FLAG (human) (UniProt Q9Y5U2); assay: co-IP; anti-GFP or anti-FLAG antibodies pre-bound to agarose beads, overnight at 4 °C; lysates of transfected HeLa cells in NET2 buffer (50 mM Tris-HCl pH 7.4, 150 mM NaCl, 0.05% Nonidet P-40); western blot; also from RNase A treated lysates (Fig. 1d)
[2] = target: TSSC4-GFP (human) (UniProt Q9Y5U2); assay: as above
[3] = target: TSSC4-FLAG (human) (UniProt Q9Y5U2); assay: co-IP + co-sedimentation; TSSC4-FLAG immunoprecipitated, complexes eluted with triple FLAG peptide and resolved on a 10–30% glycerol gradient (130,000×g, 17 h, 4 °C; 20 mM HEPES/KOH pH 8.0, 150 mM KCl, 1.5 mM MgCl2); western blot of the fractions

binding [1]: no binding
binding [2]: no binding
B1: SART3 (protein, UniProt Q15020 1-963)
chain: MATAAETSASEPEAESKAGPKADGEEDEVKAARTRRKVLSRAVAAATYKTMGPAWDQQEEGVSESDGDEYAMASSAESSPGEYEWEYDEEEEKNQLEIERLEEQLSINVYDYNCHVDLIRLLRLEGELTKVRMARQKMSEIFPLTEELWLEWLHDEISMAQDGLDREHVYDLFEKAVKDYICPNIWLEYGQYSVGGIGQKGGLEKVRSVFERALSSVGLHMTKGLALWEAYREFESAIVEAARLEKVHSLFRRQLAIPLYDMEATFAEYEEWSEDPIPESVIQNYNKALQQLEKYKPYEEALLQAEAPRLAEYQAYIDFEMKIGDPARIQLIFERALVENCLVPDLWIRYSQYLDRQLKVKDLVLSVHNRAIRNCPWTVALWSRYLLAMERHGVDHQVISVTFEKALNAGFIQATDYVEIWQAYLDYLRRRVDFKQDSSKELEELRAAFTRALEYLKQEVEERFNESGDPSCVIMQNWARIEARLCNNMQKARELWDSIMTRGNAKYANMWLEYYNLERAHGDTQHCRKALHRAVQCTSDYPEHVCEVLLTMERTEGSLEDWDIAVQKTETRLARVNEQRMKAAEKEAALVQQEEEKAEQRKRARAEKKALKKKKKIRGPEKRGADEDDEKEWGDDEEEQPSKRRRVENSIPAAGETQNVEVAAGPAGKCAAVDVEPPSKQKEKAASLKRDMPKVLHDSSKDSITVFVSNLPYSMQEPDTKLRPLFEACGEVVQIRPIFSNRGDFRGYCYVEFKEEKSALQALEMDRKSVEGRPMFVSPCVDKSKNPDFKVFRYSTSLEKHKLFISGLPFSCTKEELEEICKAHGTVKDLRLVTNRAGKPKGLAYVEYENESQASQAVMKMDGMTIKENIIKVAISNPPQRKVPEKPETRKAPGGPMLLPQTYGARGKGRTQLSLLPRALQRPSAAAPQAENGPAAAPAVAAPAATEAPKMSNADFAKLFLRK

binding [3]: no binding
B2: PRPF4 (protein, UniProt O43172 1-522)
chain: MASSRASSTQATKTKAPDDLVAPVVKKPHIYYGSLEEKERERLAKGESGILGKDGLKAGIEAGNINITSGEVFEIEEHISERQAEVLAEFERRKRARQINVSTDDSEVKACLRALGEPITLFGEGPAERRERLRNILSVVGTDALKKTKKDDEKSKKSKEEYQQTWYHEGPNSLKVARLWIANYSLPRAMKRLEEARLHKEIPETTRTSQMQELHKSLRSLNNFCSQIGDDRPISYCHFSPNSKMLATACWSGLCKLWSVPDCNLLHTLRGHNTNVGAIVFHPKSTVSLDPKDVNLASCAADGSVKLWSLDSDEPVADIEGHTVRVARVMWHPSGRFLGTTCYDRSWRLWDLEAQEEILHQEGHSMGVYDIAFHQDGSLAGTGGLDAFGRVWDLRTGRCIMFLEGHLKEIYGINFSPNGYHIATGSGDNTCKVWDLRQRRCVYTIPAHQNLVTGVKFEPIHGNFLLTGAYDNTAKIWTHPGWSPLKTLAGHEGKVMGLDISSDGQLIATCSYDRTFKLWMAE
